The list is a part of this screen's results and no random one: it is rich in T/C values a quarter to a half above the control, in often repeated tests (any T/C) and in doses without a T/C. Other doses and runs of a compound stand elsewhere. T/C is the treated group as % of the vehicle group. Some entries give survivors of the animals treated and no T/C: the source files T/C as zero there, which appears to mark a toxic dose or a test without result, not a measured value. Some doses without a T/C left all or most animals alive at the check, yet need not have been tolerated: survival well below the control is almost never listed, so the zero probably covers shortened survival too. Counts of survivors are from the toxicity check (mostly the fifth day) where no day follows; animals may have died later. Schedules are NCI's codes, taken here to give the interval after Q, in days (D) or hours (H), and the number of doses after X. Some doses were run more than once; the values are given in rising order. Some schedule codes hold Z or #, which are not explained here. Where survival is the endpoint, this PubChem deposit counts one and a half times the control or more as active, and values a quarter to a half above the control carry no call in these data; other NCI protocols may use other cut-offs.
Test system: L1210 leukemia ip in BDF1 mice, survival T/C
Experiment: NCI In Vivo Anticancer Drug Screen. Data for tumor model L1210 Leukemia (intraperitoneal) in B6D2F1 (BDF1) mice
Conditions: T/C endpoint: mean survival time, higher T/C = longer survival
[1] = dose: 50.0 mg/kg/injection, schedule: Q04DX002 (ip), vehicle: Klucel (hydroxypropylcellulose) (HPC)
[2] = dose: 100.0 mg/kg/injection, schedule: Q04DX002 (ip), vehicle: Klucel (hydroxypropylcellulose) (HPC)
[3] = dose: 300.0 mg/kg/injection, schedule: Q01DX001 (ip), vehicle: saline
[4] = dose: 200.0 mg/kg/injection, schedule: Q01DX009 (ip), vehicle: saline with Tween-80
[5] = dose: 400.0 mg/kg/injection, schedule: Q01DX009 (ip), vehicle: saline with Tween-80
[6] = dose: 200.0 mg/kg/injection, schedule: Q04DX002 (ip), vehicle: Klucel (hydroxypropylcellulose) (HPC)
[7] = dose: 400.0 mg/kg/injection, schedule: Q04DX002 (ip), vehicle: Klucel (hydroxypropylcellulose) (HPC)
[8] = dose: 400.0 mg/kg/injection, schedule: Q04DX003 (ip), vehicle: saline with Tween-80
[9] = dose: 200.0 mg/kg/injection, schedule: Q04DX003 (ip), vehicle: saline with Tween-80
[10] = dose: 100.0 mg/kg/injection, schedule: Q04DX002 (ip), vehicle: saline with Tween-80

## O=[N+]([O-])c1ccc(/C=N/c2oc(-c3ccc([N+](=O)[O-])cc3)nc2Sc2ccccc2)cc1
[1]
  T/C: 91 and 111 % of control
  survivor count: 3 of 3
[2]
  T/C: 100 % of control
  survivor count: 2 of 3 and 3 of 3

## Cc1ncnc2c1ncn2C1OC(CO)C(O)C1O (configuration not stated)
dose: 0.81 mg/kg/injection, schedule: Q01DX015 (ip), vehicle: saline, evaluated on day 5
  T/C: 131 % of control
dose: 0.81 mg/kg/injection, schedule: Q01DX015 (ip), vehicle: saline, evaluated on day 45
  T/C: 131 % of control

## O=C(OCCN1CCCCC1)C(O)C1CCCCC1 (configuration not stated)
dose: 400.0 mg/kg/injection, schedule: Q04DX003 (ip), vehicle: saline
  survivor count: 6 of 6

## Nc1nc2ncc(CNc3ccc(CC(=O)NC(CCC(=O)O)C(=O)O)cc3)nc2c(=O)[nH]1 (configuration not stated)
[3]
  survivor count: 0 of 6

## [Cl][Pt+2]([Cl])([Cl])[Cl].c1ccc(C2CC[N-]CC2)cc1.c1ccc(C2CC[N-]CC2)cc1
dose: 200.0 mg/kg/injection, schedule: Q01DX009 (ip), vehicle: water
  survivor count: 5 of 6
dose: 400.0 mg/kg/injection, schedule: Q04DX003 (ip), vehicle: water
  survivor count: 1 of 6

## CC(N=C=S)c1ccccc1 (configuration not stated)
dose: 100.0 mg/kg/injection, schedule: Q01DX009 (ip), vehicle: saline with Tween-80
  survivor count: 6 of 6
[4]
  survivor count: 1 of 6
[5]
  survivor count: 0 of 6

## C=CCC(CC)C(=O)O (configuration not stated)
dose: 400.0 mg/kg/injection, schedule: Q01DX009 (ip), vehicle: saline
  survivor count: 1 of 6

## O=C1[CH2][Hg][O]1
dose: 12.5 mg/kg/injection, schedule: Q04DX002 (ip), vehicle: Klucel (hydroxypropylcellulose) (HPC)
  survivor count: 0 of 3
dose: 25.0 mg/kg/injection, schedule: Q04DX002 (ip), vehicle: Klucel (hydroxypropylcellulose) (HPC)
  survivor count: 0 of 3
[1]
  survivor count: 1 of 3
[2]
  survivor count: 0 of 3
[6]
  survivor count: 0 of 3
[7]
  survivor count: 0 of 3

## CC(C)CNNCC(C)C
dose: 150.0 mg/kg/injection, schedule: Q01DX001 (ip), vehicle: other
  survivor count: 3 of 6
dose: 300.0 mg/kg/injection, schedule: Q01DX001 (ip), vehicle: other
  survivor count: 0 of 6

## COC(=O)c1cc(C)c(Br)c(OC)c1
dose: 400.0 mg/kg/injection, schedule: Q01DX009 (ip), vehicle: Klucel (hydroxypropylcellulose) (HPC)
  survivor count: 0 of 6

## Nc1c2ccccc2nc2ccccc12
[8]
  survivor count: 3 of 3

## CC(=O)OC1C(CO)OC(n2ccc3c(N)ncnc32)C1O (configuration not stated)
dose: 75.0 mg/kg/injection, schedule: Q01DX001 (ip), vehicle: saline
  survivor count: 5 of 6
dose: 150.0 mg/kg/injection, schedule: Q01DX001 (ip), vehicle: saline
  survivor count: 1 of 6
[3]
  survivor count: 0 of 6

## CC[N+](C)(C)c1ccccc1
dose: 100.0 mg/kg/injection, schedule: Q04DX002 (ip), vehicle: saline
  survivor count: 0 of 3
dose: 200.0 mg/kg/injection, schedule: Q04DX002 (ip), vehicle: saline
  survivor count: 0 of 3
dose: 400.0 mg/kg/injection, schedule: Q04DX002 (ip), vehicle: saline
  survivor count: 0 of 3

## CC(=O)OC(c1ccnc2ccccc12)C1CC2CCN1CC2 (configuration not stated)
dose: 400.0 mg/kg/injection, schedule: Q01DX001 (ip), vehicle: carboxymethylcellulose (CMC)
  survivor count: 1 of 4

## CCCNc1ccc(C2=NCCCN2)cc1
dose: 200.0 mg/kg/injection, schedule: Q01DX001 (ip), vehicle: saline
  survivor count: 0 of 4
dose: 400.0 mg/kg/injection, schedule: Q01DX001 (ip), vehicle: saline
  survivor count: 0 of 4

## CC(C1CCC/C(=N\NC(N)=O)C1)[N+](=O)[O-] (configuration not stated)
[4]
  survivor count: 3 of 6
[8]
  survivor count: 1 of 6

## CCCC(=O)CC(C)=O.CCCC(=O)CC(C)=O.[Cu]
dose: 25.0 mg/kg/injection, schedule: Q01DX009 (ip), vehicle: Klucel (hydroxypropylcellulose) (HPC)
  survivor count: 1 of 6
dose: 40.0 mg/kg/injection, schedule: Q04DX003 (ip), vehicle: Klucel (hydroxypropylcellulose) (HPC)
  survivor count: 3 of 6
dose: 80.0 mg/kg/injection, schedule: Q04DX003 (ip), vehicle: Klucel (hydroxypropylcellulose) (HPC)
  survivor count: 0 of 6
dose: 160.0 mg/kg/injection, schedule: Q04DX003 (ip), vehicle: Klucel (hydroxypropylcellulose) (HPC)
  survivor count: 0 of 6

## Cc1ccc(C)c(NC(=O)NCc2ccc(Cl)cc2)c1
[9]
  survivor count: 6 of 6

## Nc1ncnc2nc(-c3ccc(SCc4ccccc4)cc3)[nH]c12
[10]
  survivor count: 3 of 3
dose: 100.0 mg/kg/injection, schedule: Q04DX003 (ip), vehicle: saline with Tween-80
  survivor count: 6 of 6
[9]
  survivor count: 6 of 6
[5]
  survivor count: 3 of 3
[8]
  survivor count: 6 of 6

## CC(=C(C#N)C#N)c1ccc(Cl)cc1
dose: 200.0 mg/kg/injection, schedule: Q04DX003 (ip), vehicle: Klucel (hydroxypropylcellulose) (HPC)
  survivor count: 2 of 6
dose: 400.0 mg/kg/injection, schedule: Q04DX003 (ip), vehicle: Klucel (hydroxypropylcellulose) (HPC)
  survivor count: 0 of 6

## c1cc[c]([Sn]([c]2ccccc2)([c]2ccccc2)[n]2nnc3ccccc32)cc1
[10]
  survivor count: 0 of 3
dose: 200.0 mg/kg/injection, schedule: Q04DX002 (ip), vehicle: saline with Tween-80
  survivor count: 0 of 3
dose: 400.0 mg/kg/injection, schedule: Q04DX002 (ip), vehicle: saline with Tween-80
  survivor count: 0 of 3

## CC[P+](c1ccccc1)(c1ccccc1)c1ccccc1
dose: 5.0 mg/kg/injection, schedule: Q04DX003 (ip), vehicle: saline
  survivor count: 6 of 6
dose: 10.0 mg/kg/injection, schedule: Q04DX003 (ip), vehicle: saline
  survivor count: 1 of 6
dose: 20.0 mg/kg/injection, schedule: Q04DX003 (ip), vehicle: saline
  survivor count: 1 of 6

## CCOc1ccccc1N1C(=O)CSC1=S
dose: 100.0 mg/kg/injection, schedule: Q04DX002 (ip), vehicle: other
  T/C: 127 % of control

## O=C1c2ccccc2C[CH]1[Hg][Cl] (configuration not stated)
dose: 20.0 mg/kg/injection, schedule: Q01DX001 (ip), vehicle: saline
  survivor count: 1 of 6
dose: 40.0 mg/kg/injection, schedule: Q01DX001 (ip), vehicle: saline
  survivor count: 0 of 6
dose: 80.0 mg/kg/injection, schedule: Q01DX001 (ip), vehicle: saline
  survivor count: 0 of 6

## Cc1cccc2c(Nc3ccc(NS(C)(=O)=O)cc3)c3ccc([N+](=O)[O-])cc3nc12
dose: 37.5 mg/kg/injection, schedule: Q01DX009 (ip), vehicle: saline
  survivor count: 6 of 6
dose: 37.5 mg/kg/injection, schedule: Q04DX003 (ip), vehicle: saline
  T/C: 133 % of control
dose: 38.0 mg/kg/injection, schedule: Q01DX009 (ip), vehicle: Klucel (hydroxypropylcellulose) (HPC)
  survivor count: 6 of 6
dose: 75.0 mg/kg/injection, schedule: Q01DX009 (ip), vehicle: saline
  survivor count: 6 of 6
dose: 75.0 mg/kg/injection, schedule: Q04DX003 (ip), vehicle: saline
  T/C: 131 % of control
dose: 150.0 mg/kg/injection, schedule: Q01DX009 (ip), vehicle: saline
  survivor count: 5 of 6
dose: 150.0 mg/kg/injection, schedule: Q04DX003 (ip), vehicle: saline
  T/C: 135 % of control
dose: 300.0 mg/kg/injection, schedule: Q01DX009 (ip), vehicle: saline
  survivor count: 3 of 6
dose: 300.0 mg/kg/injection, schedule: Q04DX003 (ip), vehicle: saline
  T/C: 129 % of control
dose: 600.0 mg/kg/injection, schedule: Q01DX001 (ip), vehicle: saline
  survivor count: 2 of 6

## CC[CH2][Pb]([CH2]CC)([CH2]CC)[O]C(=O)C(F)(F)F
[1]
  survivor count: 0 of 3
[2]
  survivor count: 0 of 3
[6]
  survivor count: 0 of 3
[7]
  survivor count: 2 of 3

## C=CCC(=O)O
dose: 55.0 mg/kg/injection, schedule: Q01DX Z (ip), vehicle: saline
  survivor count: 6 of 6
